A short description of this data set: Second order rate constant of the reaction between miniprotein (MP) and capture agent (CA), LC-MS TIC peak integration. To be noted: pH 6-9.5, buffers MES/HEPES/TAPS/CAPS. The class given is biochemical.

No end group written: not given here.

For “MNQKYKMAKACFFAFLEHLKKRKLYPMSG-NH2 [MP01-Gen4]”, the “midpoint of reaction rate versus pH curve” value was ~8 pH.

The record behind these values is patent publication US11014961B2, “Self-labeling miniproteins and conjugates comprising them” (priority 2017, dated 2021).
